Assay results published in publication PMC4228055.
These are yes or no findings as the source states them, for the method shown. Binding seen in cells or lysates may run through a third protein. Some binding calls cover weakened binding; strength is not graded here. Each block holds one binder with its values, some of them ahead of it.

Sequences of proteins named here, by UniProt entry; tags and fusion partners are left off.
UniProt P20263: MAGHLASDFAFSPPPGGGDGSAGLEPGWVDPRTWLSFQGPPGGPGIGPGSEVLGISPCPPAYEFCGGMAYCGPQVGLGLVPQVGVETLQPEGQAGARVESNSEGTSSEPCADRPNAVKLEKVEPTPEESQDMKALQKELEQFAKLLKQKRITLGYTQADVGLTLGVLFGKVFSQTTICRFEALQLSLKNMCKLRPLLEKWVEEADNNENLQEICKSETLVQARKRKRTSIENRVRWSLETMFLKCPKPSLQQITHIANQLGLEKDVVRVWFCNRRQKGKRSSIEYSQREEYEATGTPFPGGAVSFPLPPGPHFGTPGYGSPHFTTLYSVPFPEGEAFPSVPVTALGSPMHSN

Legend:
[1] = target: FLAG-tagged Oct4 (mouse), P20263; assay: co-IP; postnuclear membrane fractions of FLAG-tagged POUV-protein-rescued ZHBTc4 ESC lines grown in self-renewing conditions; precipitated with either E-cadherin or FLAG tag antibody, IgG control; immunoblot; conditions designed to detect interactions between membrane proteins; details: remark: other sources report otherwise
FLAG-tagged Oct4 (mouse) = FLAG-tagged Oct4 (mouse) (UniProt P20263); assay: as above

binding [1]: binds
B1: β-catenin, Q02248 1-781 (protein)
chain: MATQADLMELDMAMEPDRKAAVSHWQQQSYLDSGIHSGATTTAPSLSGKGNPEEEDVDTSQVLYEWEQGFSQSFTQEQVADIDGQYAMTRAQRVRAAMFPETLDEGMQIPSTQFDAAHPTNVQRLAEPSQMLKHAVVNLINYQDDAELATRAIPELTKLLNDEDQVVVNKAAVMVHQLSKKEASRHAIMRSPQMVSAIVRTMQNTNDVETARCTAGTLHNLSHHREGLLAIFKSGGIPALVKMLGSPVDSVLFYAITTLHNLLLHQEGAKMAVRLAGGLQKMVALLNKTNVKFLAITTDCLQILAYGNQESKLIILASGGPQALVNIMRTYTYEKLLWTTSRVLKVLSVCSSNKPAIVEAGGMQALGLHLTDPSQRLVQNCLWTLRNLSDAATKQEGMEGLLGTLVQLLGSDDINVVTCAAGILSNLTCNNYKNKMMVCQVGGIEALVRTVLRAGDREDITEPAICALRHLTSRHQEAEMAQNAVRLHYGLPVVVKLLHPPSHWPLIKATVGLIRNLALCPANHAPLREQGAIPRLVQLLVRAHQDTQRRTSMGGTQQQFVEGVRMEEIVEGCTGALHILARDVHNRIVIRGLNTIPLFVQLLYSPIENIQRVAAGVLCELAQDKEAAEAIEAEGATAPLTELLHSRNEGVATYAAAVLFRMSEDKPQDYKKRLSVELTSSLFRTEPMAWNETADLGLDIGAQGEALGYRQDDPSYRSFHSGGYGQDALGMDPMMEHEMGGHHPGADYPVDGLPDLGHAQDLMDGLPPGDSNQLAWFDTDL

binding (FLAG-tagged Oct4 (mouse)): binds
B2: p120-catenin (protein, UniProt P30999 1-938)
chain: MDDSEVESTASILASVKEQEAQFEKLTRALEEERRHVSAQLERVRVSPQDANSLMANGTLTRRHQNGRFVGDADLERQKFSDLKLNGPQDHNHLLYSTIPRMQEPGQIVETYTEEDPEGAMSVVSVETTDDGTTRRTETTVKKVVKTMTTRTVQPVPMGPDGLPVDASAVSNNYIQTLGRDFRKNGNGGPGPYVGQAGTATLPRNFHYPPDGYGRHYEDGYPGGSDNYGSLSRVTRIEERYRPSMEGYRAPSRQDVYGPQPQVRVGGSSVDLHRFHPEPYGLEDDQRSMGYDDLDYGMMSDYGTARRTGTPSDPRRRLRSYEDMIGEEVPPDQYYWAPLAQHERGSLASLDSLRKGMPPPSNWRQPELPEVIAMLGFRLDAVKSNAAAYLQHLCYRNDKVKTDVRKLKGIPILVGLLDHPKKEVHLGACGALKNISFGRDQDNKIAIKNCDGVPALVRLLRKARDMDLTEVITGTLWNLSSHDSIKMEIVDHALHALTDEVIIPHSGWEREPNEDCKPRHIEWESVLTNTAGCLRNVSSERSEARRKLRECDGLVDALIFIVQAEIGQKDSDSKLVENCVCLLRNLSYQVHREIPQAERYQEALPTVANSTGPHAASCFGAKKGKDEWFSRGKKPTEDPANDTVDFPKRTSPARGYELLFQPEVVRIYISLLKESKTPAILEASAGAIQNLCAGRWTYGRYIRSALRQEKALSAIAELLTSEHERVVKAASGALRNLAVDARNKELIGKHAIPNLVKNLPGGQQNSSWNFSEDTVVSILNTINEVIAENLEAAKKLRETQGIEKLVLINKSGNRSEKEVRAAALVLQTIWGYKELRKPLEKEGWKKSDFQVNLNNASRSQSSHSYDDSTLPLIDRNQKSDKKPDREEIPMSNMGSNTKSLDNNYSTLNERGDHNRTLDRSGDLGDMEPLKGAPLMQKI
